The target of this experiment is T1, Endogenous Prickle1 (mouse brain) (mouse (endogenous in wild-type mouse brain)) (UniProt Q3U5C7).
T1 sequence: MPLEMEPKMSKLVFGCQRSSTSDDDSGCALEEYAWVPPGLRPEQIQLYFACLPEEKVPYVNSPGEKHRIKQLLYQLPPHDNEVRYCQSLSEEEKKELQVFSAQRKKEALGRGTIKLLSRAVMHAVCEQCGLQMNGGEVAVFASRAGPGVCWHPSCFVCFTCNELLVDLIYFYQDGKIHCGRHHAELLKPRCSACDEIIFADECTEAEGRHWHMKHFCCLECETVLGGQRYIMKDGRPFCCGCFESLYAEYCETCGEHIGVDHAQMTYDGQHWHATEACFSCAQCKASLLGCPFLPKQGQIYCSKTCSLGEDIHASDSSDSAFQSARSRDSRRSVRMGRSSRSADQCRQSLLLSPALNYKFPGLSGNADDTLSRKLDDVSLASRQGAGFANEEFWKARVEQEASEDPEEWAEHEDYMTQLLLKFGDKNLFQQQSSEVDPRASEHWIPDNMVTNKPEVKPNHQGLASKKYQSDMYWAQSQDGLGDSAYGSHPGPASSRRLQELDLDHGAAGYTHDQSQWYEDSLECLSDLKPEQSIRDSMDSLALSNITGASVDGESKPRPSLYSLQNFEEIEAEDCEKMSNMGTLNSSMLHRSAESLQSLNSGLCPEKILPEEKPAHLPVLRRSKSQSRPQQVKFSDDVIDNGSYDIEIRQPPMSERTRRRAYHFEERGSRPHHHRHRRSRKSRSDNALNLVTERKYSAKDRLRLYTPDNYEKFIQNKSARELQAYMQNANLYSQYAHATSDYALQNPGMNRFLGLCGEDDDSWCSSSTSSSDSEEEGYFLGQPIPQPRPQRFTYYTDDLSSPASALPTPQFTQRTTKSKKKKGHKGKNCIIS
As to the kind of experiment: co-IP; wild-type mouse brain lysate; protein A/G agarose beads with USIPP immune serum (anti-Prickle1 blot) or with anti-Prickle1 antibodies (anti-Synapsin I blot), overnight at 4°C; washes in NET-100 buffer.

Results are given in words; binding and its absence hold for the method and conditions named. In cells and extracts the contact can be indirect. Some binding calls cover weakened binding; strength is not graded here.

“Endogenous Synapsin I (mouse brain) (from UniProt O88935-2 1-706)”: the binding result is given as “binds”.

The values above are taken from publication PMC3849077.
